According to patent US10858308B2, “Compounds and compositions” (priority 2017, dated 2020):
At least one structure is not confirmed: it was looked up by name or label, or the drawing left a doubt.

Key:
[1] = system: Herpes Simplex virus-1 (HSV 1); assay: HSV 1 spread and plaque assay in Vero cells; conditions: pre-treated, liquid and agar plaque assay, two days of infection, dose dependent
pH of aqueous solution = type: physicochemical
Vaccinia virus (WR-VV) = type: cell-based; set-up: dose or concentration left out as unconfirmed; conditions: BSC 40 cells pre-treated

Cc1ccc(C(C)C)c(OC(=O)C[N+](C)(C)CCCCCCCCCC[N+](C)(C)CC(=O)Oc2cc(C(C)C)ccc2C)c1 [Compound 2, N^1-{2-[2-methyl-5-(propan-2-yl)phenoxy]-2-oxoethyl}-N^1,N^1,N^10,N^10-tetramethyl-N^10-{2-[5-methyl-2-(propan-2-yl)phenoxy]-2oxoethyl}decane-1,10-bis(aminium) dichloride]
inhibitory effect on HSV 1 spreading and plaque number [1]: strong inhibitory effect | Aqueous solution pH (pH of aqueous solution): 6 | inhibition of Vaccinia virus plaque formation (Vaccinia virus (WR-VV)): none of compounds 2 or 3 inhibited Vaccinia virus (VV) plaque formation
